Experimental data published in PubChem BioAssay AID1347076 (National Center for Advancing Translational Sciences (NCATS), 2019).
Screen size: about 400,000 compounds; about 13,000 (3.2%) were called active. Inconclusive results, whose numbers are uncertain, are shown with a selection of clear calls. Calls come from the whole dose curve; as a rule, active = well fitted cell-killing curve with a large enough effect; inconclusive = small, poorly fitted or top-dose-only effect, or effect the other way; inactive = flat fitted curve, though single readings scatter. Where the call is inconclusive, the potency comes from a doubtful curve fit.

Experiment: qHTS assay for MDR1-selective chemotherapeutics: Primary screen using the drug-selected MDR subline cells KB-V1; note: nearly all actives have a fitted effect of over 60% in size
Settings: KB-V1 MDR cells viability, CellTiter-Glo, 72 h; activity change, negative = cytotoxicity: at 46.1 µM (top of the series)
In short: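 Drug-selected KB-V1 cells, grown in DMEM lacking phenol red with 10% FBS, receive compound titrations; after three days at 37 degrees C, surviving cell ATP is quantified by CellTiter-Glo luminescence and responses normalized and curve-fitted.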
% is set by controls: 0 for no effect and ±100 for the full control effect; potency is the fitted concentration of half-maximal effect.

Question: Which Potency does the source give for `COc1cc(NC(=O)[C@H]2CCCN2S(=O)(=O)c2cccc3cccnc23)cc(OC)c1OC` here?
Answer: inconclusive: 0.651 µM [rising, full curve, poor fit]

Question: With `c1ccc(C(c2ccccc2)N2CCN(Cc3nnnn3C3CCCCC3)CC2)cc1` as the compound, how does the Potency read?
Answer: inconclusive: 16.4 µM [cytotoxic, single point]

Question: Which “activity change, negative = cytotoxicity” value does the source give for `CC1=C(C(=O)Nc2cccc(F)c2)C2(CCCCCC2)OC1=O` here?
Answer: inactive: 7.33%

Question: Which Potency does the source give for `C[C@H](NC(=O)c1ccc2ccccc2c1)C(=O)N1CCC2(CC1)NCCc1[nH]cnc12` here?
Answer: inconclusive: 20.6 µM [rising, single point]

Question: For `CC12CCC(C(=O)Nc3ccccc3Cl)(C(Br)C1=O)C2(C)C` (stereo unspecified), which Potency is on record?
Answer: active: 13 µM

Question: Which activity change, negative = cytotoxicity does the source give for `O=C(COC(=O)c1cc[n+]([O-])cc1)Nc1cccc(Br)c1` here?
Answer: inconclusive: -46.2%

Question: With `CCCCN1CC[C@H]2C=CC[C@@H](C(=O)Nc3nccs3)[C@H]2C1=O` as the compound, how does the Potency read?
Answer: inconclusive: 14.6 µM [cytotoxic, partial curve]

Question: With `COc1ccc(CCNc2nc3ccccc3n3cnnc23)cc1OC` as the compound, how does the “activity change, negative = cytotoxicity” value read?
Answer: inactive: -4.95%

Question: For `COc1cc(OC)c(NC(=O)Cn2c(=O)nc(-c3ccccc3)c3ccccc32)cc1Cl`, which “activity change, negative = cytotoxicity” value is on record?
Answer: inactive: 41.1%

Question: For `CCC(C)c1ccc(NC(=O)Nc2cnccn2)cc1` (stereo unspecified), which Potency is on record?
Answer: inconclusive: 9.2 µM [cytotoxic, partial curve]

Question: Which “activity change, negative = cytotoxicity” value does the source give for `COCCCNc1oc(-c2ccc(COc3ccccc3C)o2)nc1C#N` here?
Answer: inactive: -9.74%

Question: With `Cc1ccc(Oc2ccc(S(=O)(=O)N3CCOCC3)cc2C(N)=O)c(-n2nc3ccccc3n2)c1` as the compound, how does the Potency read?
Answer: active: 18.4 µM

Question: With `Cc1cc(C)nc(Sc2ccc([N+](=O)[O-])cc2[N+](=O)[O-])n1` as the compound, how does the Potency read?
Answer: inconclusive: 23.1 µM [cytotoxic, partial curve, poor fit]

Question: With `Cc1ccc2c(=O)c(C(=O)c3cccc(Cl)c3)cn(CC(=O)NCc3ccccc3)c2n1` as the compound, how does the Potency read?
Answer: inconclusive: 29.1 µM [rising, single point]

Question: Which Potency does the source give for `COc1ccc(OC)c(NC(=O)c2cc3n(n2)C(C(F)(F)F)CC(c2ccc4c(c2)OCO4)N3)c1` (stereo unspecified) here?
Answer: active: 11.6 µM

Question: For `CC(=O)c1ccc(S(=O)(=O)N2CCN(C(=O)CCC3CCCC3)CC2)cc1`, which activity change, negative = cytotoxicity is on record?
Answer: inconclusive: -32.2%

Question: Which Potency does the source give for `COc1ccc(OC)c(NC(=O)C(Cc2ccccc2)NS(=O)(=O)c2ccc3c(c2)CCC(=O)N3)c1` (stereo unspecified) here?
Answer: inconclusive: 16.4 µM [rising, partial curve, poor fit]

Question: For `c1cncc(Nc2c3ccccc3nc3ccccc23)c1`, which Potency is on record?
Answer: inconclusive: 14.6 µM [cytotoxic, partial curve]

Question: Which “activity change, negative = cytotoxicity” value does the source give for `Cc1cccc(Nc2nc(-c3ccc(O)c(O)c3)cs2)n1` here?
Answer: inactive: -6.58%

Question: Which “activity change, negative = cytotoxicity” value does the source give for `CCOC(=O)C1CCCNC1=O` (stereo unspecified) here?
Answer: inactive: 23.6%

Question: Which Potency does the source give for `Cc1ccc(S(=O)(=O)N2CCN(C(=O)CSc3ccccn3)CC2)c(C)c1` here?
Answer: inconclusive: 10.3 µM [cytotoxic, partial curve]

Question: Which “activity change, negative = cytotoxicity” value does the source give for `COCCN(C(=S)Nc1cc(C)cc(C)c1)C(C)c1cccs1` (stereo unspecified) here?
Answer: inactive: 18.2%

Question: With `Cn1c(NC(=S)Nc2ccccc2)nc2ccccc21` as the compound, how does the Potency read?
Answer: inconclusive: 8.2 µM [cytotoxic, partial curve, poor fit]

Question: Which Potency does the source give for `Cn1cccc1/C=C1\SC(=S)N(NC(=O)c2cccc(Cl)c2)C1=O` here?
Answer: inconclusive: 0.0411 µM [cytotoxic, full curve]

Question: Which “activity change, negative = cytotoxicity” value does the source give for `O=C(Nc1ccccn1)C1CCN(C(=O)c2ccc(Cl)cc2)CC1` here?
Answer: inactive: -1.9%

Question: Which Potency does the source give for `CCC1=NN2C(=N)/C(=C/c3ccc(OS(=O)(=O)c4ccccc4)cc3)C(=O)N=C2S1` here?
Answer: inconclusive: 16.4 µM [rising, partial curve, poor fit]

Question: With `COc1cc(OC)cc(C(=O)Nc2ccc(NC(=O)c3ccco3)c(C)c2)c1` as the compound, how does the Potency read?
Answer: inconclusive: 14.6 µM [cytotoxic, partial curve, poor fit]

Question: For `O=c1[nH]nc(Cc2ccc(-c3cccc(Cl)c3)o2)c2ccccc12`, which “activity change, negative = cytotoxicity” value is on record?
Answer: inactive: -20.1%

Question: For `CCOC(=O)c1cn(Cc2cccc(Cl)c2)nn1`, which “activity change, negative = cytotoxicity” value is on record?
Answer: inactive: -21.1%

Question: Which Potency does the source give for `COc1ccc(S(=O)(=O)N2CCOC2CNC(=O)C(=O)NCCc2ccccc2)cc1C` (stereo unspecified) here?
Answer: inconclusive: 29.1 µM [cytotoxic, single point]

Question: With `O=C(O)c1cc(-c2ccc(Cl)c(Cl)c2)n(-c2ccccc2)n1` as the compound, how does the “activity change, negative = cytotoxicity” value read?
Answer: inactive: 26%

Question: With `CCOc1ccc(OCc2ccc(C(=O)N3N=C(C(F)F)CC3(O)C(F)F)o2)cc1` (stereo unspecified) as the compound, how does the Potency read?
Answer: active: 16.4 µM

Question: With `CCCNC(=O)c1cc(S(=O)(=O)N2CCC3(CC2)OCCO3)ccc1F` as the compound, how does the “activity change, negative = cytotoxicity” value read?
Answer: inactive: -10.9%

Question: Which “activity change, negative = cytotoxicity” value does the source give for `Cc1c(/C=C2\SC(=Nc3cccc(C(=O)O)c3)NC2=O)c2ccccc2n1C` here?
Answer: inactive: 15.1%

Question: For `CN(C)c1nc(OCCNC(=O)COc2ccc(Cl)cc2Cl)nc(N2CCOCC2)n1`, which Potency is on record?
Answer: inconclusive: 20.6 µM [cytotoxic, partial curve, poor fit]

Question: With `CCCN1C(=O)/C(=C2\SC(N3CCCCC3)=NC2=O)c2ccccc21` as the compound, how does the Potency read?
Answer: inconclusive: 18.4 µM [cytotoxic, single point]

Question: For `O=C(NCc1ccco1)c1cc2n(n1)C(C(F)(F)F)CC(c1ccc(Br)cc1)N2` (stereo unspecified), which Potency is on record?
Answer: inconclusive: 10.3 µM [cytotoxic, partial curve]

Question: Which Potency does the source give for `CCOc1ccc2oc(C(=O)NC3CCN(Cc4ccccc4)CC3)c(C)c2c1` here?
Answer: inconclusive: 20.6 µM [cytotoxic, partial curve, poor fit]

Question: With `O=C(C[n+]1cc(-c2ccc(F)cc2)n2c1CCC2)OCc1ccccc1` as the compound, how does the “activity change, negative = cytotoxicity” value read?
Answer: inactive: 1.45%

Question: Which “activity change, negative = cytotoxicity” value does the source give for `CCCNC(=S)Nc1ccc(Cl)cc1C` here?
Answer: inactive: 15.4%

Question: With `O=C(Nc1ccc(Br)cc1)Nc1nc2c(s1)CCCCCC2` as the compound, how does the “activity change, negative = cytotoxicity” value read?
Answer: inactive: 4.38%

Question: Which Potency does the source give for `CC(C)=C1SC(N2CCN(c3ccc(Cl)cc3)CC2)=NC1=O` here?
Answer: inconclusive: 1.84 µM [cytotoxic, full curve, poor fit]

Question: With `NS(=O)(=O)c1ccc(CNC(=O)c2cc(-c3cccnc3)nc3ccc(Br)cc23)cc1` as the compound, how does the Potency read?
Answer: inconclusive: 20.6 µM [rising, single point]

Question: Which Potency does the source give for `CC(=O)c1c(-c2ccccc2)c2cc(Cl)ccc2[nH]c1=O` here?
Answer: inconclusive: 20.6 µM [cytotoxic, partial curve, poor fit]

Question: For `O=C(c1cccs1)N1C[C@@H](O)[C@H](n2cc(-c3ccc(F)cc3)nn2)C[C@@H]1c1ccc(Cl)cc1`, which Potency is on record?
Answer: inconclusive: 14.6 µM [cytotoxic, partial curve]

Question: Which “activity change, negative = cytotoxicity” value does the source give for `CN(C)/C=C(\C#N)C(=O)N/N=C/c1ccccc1` here?
Answer: inactive: 19.8%
